PubChem BioAssay AID686943, Drosophila RNAi Screening Center, 2013
Purpose: 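Knockdowns that increase or decrease active ERK after insulin receptor stimulation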 (primary screen). Cell system: Drosophila S2R+ haemocyte-like cells expressing YFP-tagged ERK (Rolled). Reagent: long dsRNA against Drosophila genes. Challenge: insulin stimulation versus unstimulated cells; dose and duration not given. Detection: 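Antibody staining for doubly phosphorylated ERK divided by ERK-YFP signal, as plate z-scores, in insulin-treated and untreated cells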. Scale: replicate 1, z-score of dpERK with insulin and replicate 2, z-score of dpERK with insulin: higher = more active ERK per ERK-YFP after insulin; replicate 1, z-score of dpERK under basal conditions: higher = more basal active ERK per ERK-YFP.
The deposit covers about 23,000 reagents; below is an unselected part of those that have a named target and a result. 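Extra replicates exist only for a retested subset of genes; insulin dose and duration not given; both raised and lowered dpERK matter.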 The numbers tell different reagents against one gene apart. Names joined by + are all predicted targets of the reagent. Further read-outs or replicates are left out here. The record does not give: the amount of reagent, the time to read-out.

predicted target | reagent | replicate 1, z-score of dpERK with insulin | replicate 2, z-score of dpERK with insulin | replicate 1, z-score of dpERK under basal conditions
TwdlY (TweedleY) | 1 | -0.25 | 0.88 | -0.17
CG13299 | 1 | 0.27 | -0.08 | –
fu (fused) | 1 | -1.59 | -3.28 | 1.46
CG11342 | 1 | -0.11 | 0.55 | -0.1
CG12783 | 1 | -0.21 | -0.53 | 0.53
CG13442 | 1 | -0.85 | -0.28 | -0.86
CG15756 | 1 | -0.24 | -0.08 | -0.26
Ccdc58 + CG34116 | 1 | 1.36 | 0.18 | 0.64
mthl1 (methuselah-like 1) | 1 | -0.11 | -0.59 | -0.05
Idh3b (Isocitrate dehydrogenase 3b) | 1 | -0.79 | 0.35 | -1
GluRIB (Glutamate receptor IB) | 1 | 0.28 | 1.53 | 1.15
GluRIB (Glutamate receptor IB) | 2 | 1.97 | 0.81 | 1.5
beta'COP (Coat Protein (coatomer) beta') | 1 | 2.04 | 2.36 | -0.15
Cpr67B (Cuticular protein 67B) | 1 | -0.19 | -0.17 | -0.54
l(3)72Dn (lethal (3) 72Dn) | 1 | -0.23 | 0.08 | -0.92
pon (partner of numb) | 1 | -0.06 | 0.32 | -0.15
CG5087 | 1 | 0.5 | 0.83 | -0.42
Mlf (Myelodysplasia/myeloid leukemia factor) | 1 | 4.25 | 3.27 | 2.09
Hecw (Hecw ubiquitin protein ligase) | 1 | 0.7 | 0.5 | -0.04
Hecw (Hecw ubiquitin protein ligase) | 2 | 0.49 | 0.03 | -0.68
CG33159 | 1 | 0.39 | 0.65 | -1.02
pncr003:2L (retired record) | 1 | -0.17 | -0.79 | -1.26
Miox (Myo-inositol oxygenase) | 1 | -0.29 | -0.67 | 0.47
Cyp6d5 (Cytochrome P450 6d5) | 1 | -0.13 | 0.36 | -0.3
CG17145 | 1 | 0.22 | 0.62 | -0.69
CG3634 | 1 | 0.8 | 0.45 | 1.22
CG5946 | 1 | -0.02 | -0.12 | -0.04
Tb (Tubby) | 1 | -0.37 | 0.07 | 0.54
CG13531 | 1 | 1.6 | 0.03 | 1.07
Eip93F (Ecdysone-induced protein 93F) | 1 | -0.1 | -0.35 | 0.55
Eip93F (Ecdysone-induced protein 93F) | 2 | 0.42 | -0.01 | -1.65
Eip93F (Ecdysone-induced protein 93F) | 3 | 0.61 | 1.64 | -0.95
betaTry (betaTrypsin) | 1 | 1.02 | 0.77 | 0.18
betaTry (betaTrypsin) | 2 | 0.17 | -0.21 | 0.13
CG7519 | 1 | 0.26 | 0.07 | 0.33
CG13481 | 1 | -0.12 | 0.3 | 0.56
Tango11 (Transport and Golgi organization 11) | 1 | 0.59 | 0.56 | -0.44
Tango11 (Transport and Golgi organization 11) | 2 | -0.57 | -1.41 | 0
CG16890 | 1 | -0.38 | -0.53 | 0.09
CG43072 | 1 | 0.06 | -0.22 | 0.73
BORCS5 (BLOC-1 related complex subunit 5) | 1 | 0.08 | 0.23 | 0.71
CG4098 | 1 | -0.07 | -0.19 | -1.18
Pglym87 (Phosphoglyceromutase 87) | 1 | -0.52 | -0.11 | -0.33
CG6041 | 1 | -0.19 | -0.64 | 0.32
CG8097 | 1 | -0.18 | -0.03 | -0.38
Graf (GTPase regulator associated with FAK) | 1 | 0.19 | 0.38 | -0.01
CG8301 | 1 | -0.53 | 0.24 | 0.09
CG6574 | 1 | 0.01 | 0.28 | -0.08
rg (rugose) | 1 | 0.4 | 2.26 | 1.55
rg (rugose) | 2 | 0.26 | 1.39 | -1.02
rg (rugose) | 3 | 0.33 | -0.22 | 1.07
RunxB (Runt related B) | 1 | 1.41 | -0.55 | 0.24
RunxB (Runt related B) | 2 | 0.92 | 0.4 | 0
RunxB (Runt related B) | 3 | -7.9 | -3.87 | -2.54
CG8249 | 1 | 0.98 | 0 | 0
jagn (jagunal) | 1 | -0.4 | 0.28 | -0.56
term (terminus) | 1 | 1.59 | 0.52 | -0.66

2 entries already listed, sorted by “replicate 1, z-score of dpERK under basal conditions”, ascending:
predicted target | reagent | replicate 1, z-score of dpERK with insulin | replicate 2, z-score of dpERK with insulin | replicate 1, z-score of dpERK under basal conditions
Tango11 (Transport and Golgi organization 11) | 1 | 0.59 | 0.56 | -0.44
Tango11 (Transport and Golgi organization 11) | 2 | -0.57 | -1.41 | 0
